From US9134318B2, “Detection of oxidized polypeptides” (Purdue Research Foundation, priority 2009, dated 2015)

B1: Microtubule-associated protein 4 (protein, UniProt P27816 2-1152, looked up)
Microtubule-associated …: ADLSLADALTEPSPDIEGEIKRDFIATLEAEAFDDVVGETVGKTDYIPLLDVDEKTGNSESKKKPCSETSQIEDTPSSKPTLLANGGHGVEGSDTTGSPTEFLEEKMAYQEYPNSQNWPEDTNFCFQPEQVVDPIQTDPFKMYHDDDLADLVFPSSATADTSIFAGQNDPLKDSYGMSPCNTAVVPQGWSVEALNSPHSESFVSPEAVAEPPQPTAVPLELAKEIEMASEERPPAQALEIMMGLKTTDMAPSKETEMALAKDMALATKTEVALAKDMESPTKLDVTLAKDMQPSMESDMALVKDMELPTEKEVALVKDVRWPTETDVSSAKNVVLPTETEVAPAKDVTLLKETERASPIKMDLAPSKDMGPPKENKKETERASPIKMDLAPSKDMGPPKENKIVPAKDLVLLSEIEVAQANDIISSTEISSAEKVALSSETEVALARDMTLPPETNVILTKDKALPLEAEVAPVKDMAQLPETEIAPAKDVAPSTVKEVGLLKDMSPLSETEMALGKDVTPPPETEVVLIKNVCLPPEMEVALTEDQVPALKTEAPLAKDGVLTLANNVTPAKDVPPLSETEATPVPIKDMEIAQTQKGISEDSHLESLQDVGQSAAPTFMISPETVTGTGKKCSLPAEEDSVLEKLGERKPCNSQPSELSSETSGIARPEEGRPVVSGTGNDITTPPNKELPPSPEKKTKPLATTQPAKTSTSKAKTQPTSLPKQPAPTTIGGLNKKPMSLASGLVPAAPPKRPAVASARPSILPSKDVKPKPIADAKAPEKRASPSKPASAPASRSGSKSTQTVAKTTTAAAVASTGPSSRSPSTLLPKKPTAIKTEGKPAEVKKMTAKSVPADLSRPKSTSTSSMKKTTTLSGTAPAAGVVPSRVKATPMPSRPSTTPFIDKKPTSAKPSSTTPRLSRLATNTSAPDLKNVRSKVGSTENIKHQPGGGRAKVEKKTEAAATTRKPESNAVTKTAGPIASAQKQPAGKVQIVSKKVSYSHIQSKCGSKDNIKHVPGGGNVQIQNKKVDISKVSSKCGSKANIKHKPGGGDVKIESQKLNFKEKAQAKVGSLDNVGHLPAGGAVKTEGGGSEAPLCPGPPAGEEPAISEAAPEAGAPTSASGLNGHPTLSGGGDQREAQTLDSQIQETSI
B2: Peroxiredoxin-2 (protein, UniProt P32119 2-198, looked up)
Peroxiredoxin-2: ASGNARIGKPAPDFKATAVVDGAFKEVKLSDYKGKYVVLFFYPLDFTFVCPTEIIAFSNRAEDFRKLGCEVLGVSVDSQFTHLAWINTPRKEGGLGPLNIPLLADVTRRLSEDYGVLKTDEGIAYRGLFIIDGKGVLRQITVNDLPVGRSVDEALRLVQAFQYTDEHGEVCPAGWKPGSDTIKPNVDDSKEYFSKHN
B3: Serum paraoxonase/arylesterase 1 (protein, UniProt P27169 2-355, looked up)
Serum …: AKLIALTLLGMGLALFRNHQSSYQTRLNALREVQPVELPNCNLVKGIETGSEDLEILPNGLAFISSGLKYPGIKSFNPNSPGKILLMDLNEEDPTVLELGITGSKFDVSSFNPHGISTFTDEDNAMYLLVVNHPDAKSTVELFKFQEEEKSLLHLKTIRHKLLPNLNDIVAVGPEHFYGTNDHYFLDPYLQSWEMYLGLAWSYVVYYSPSEVRVVAEGFDFANGINISPDGKYVYIAELLAHKIHVYEKHANWTLTPLKSLDFNTLVDNISVDPETGDLWVGCHPNGMKIFFYDSENPPASEVLRIQNILTEEPKVTQVYAENGTVLQGSTVASVYKGKLLIGTVFHKALYCEL
B4: Origin recognition complex subunit 4 (protein, UniProt O43929 1-436, looked up)
Origin recognition complex …: MSSRKSKSNSLIHTECLSQVQRILRERFCRQSPHSNLFGVQVQYKHLSELLKRTALHGESNSVLIIGPRGSGKTMLINHALKELMEIEEVSENVLQVHLNGLLQINDKIALKEITRQLNLENVVGDKVFGSFAENLSFLLEALKKGDRTSSCPVIFILDEFDLFAHHKNQTLLYNLFDISQSAQTPIAVIGLTCRLDILELLEKRVKSRFSHRQIHLMNSFGFPQYVKIFKEQLSLPAEFPDKVFAEKWNENVQYLSEDRSVQEVLQKHFNISKNLRSLHMLLMLALNRVTASHPFMTAVDLMEASQLCSMDSKANIVHGLSVLEICLIIAMKHLNDIYEEEPFNFQMVYNEFQKFVQRKAHSVYNFEKPVVMKAFEHLQQLELIKPMERTSGNSQREYQLMKLLLDNTQIMNALQKYPNCPTDVRQWATSSLSWL
B5: Mannan-binding lectin serine protease 2 precursor (protein, UniProt O00187 16-686, looked up)
Mannan-binding lectin serine …: TPLGPKWPEPVFGRLASPGFPGEYANDQERRWTLTAPPGYRLRLYFTHFDLELSHLCEYDFVKLSSGAKVLATLCGQESTDTERAPGKDTFYSLGSSLDITFRSDYSNEKPFTGFEAFYAAEDIDECQVAPGEAPTCDHHCHNHLGGFYCSCRAGYVLHRNKRTCSALCSGQVFTQRSGELSSPEYPRPYPKLSSCTYSISLEEGFSVILDFVESFDVETHPETLCPYDFLKIQTDREEHGPFCGKTLPHRIETKSNTVTITFVTDESGDHTGWKIHYTSTAQPCPYPMAPPNGHVSPVQAKYILKDSFSIFCETGYELLQGHLPLKSFTAVCQKDGSWDRPMPACSIVDCGPPDDLPSGRVEYITGPGVTTYKAVIQYSCEETFYTMKVNDGKYVCEADGFWTSSKGEKSLPVCEPVCGLSARTTGGRIYGGQKAKPGDFPWQVLILGGTTAAGALLYDNWVLTAAHAVYEQKHDASALDIRMGTLKRLSPHYTQAWSEAVFIHEGYTHDAGFDNDIALIKLNNKVVINSNITPICLPRKEAESFMRTDDIGTASGWGLTQRGFLARNLMYVDIPIVDHQKCTAAYEKPPYPRGSVTANMLCAGLESGGKDSCRGDSGGALVFLDSETERWFVGGIVSWGSMNCGEAGQYGVYTKVINYIPWIENIISDF
B6: Leucine-rich repeat-containing protein 49 (protein, UniProt Q8IUZ0 1-686, looked up)
Leucine-rich …: MIPGKYRSVSGRAANNVNCGLHLVIQTSSLPEKNKVEFKLNKDTSSFPGRLLQHDLERNYSSRQGDHINLVSSSLSSFPILQRSSEEKILYSDRLSLERQKLTVCPIINGEDHLRLLNFQHNFITRIQNISNLQKLISLDLYDNQIEEISGLSTLRCLRVLLLGKNRIKKISNLENLKSLDVLDLHGNQITKIENINHLCELRVLNLARNFLSHVDNLNGLDSLTELNLRHNQITFVRDVDNLPCLQHLFLSFNNISSFDSVSCLADSSSLSDITFDGNPIAQESWYKHTVLQNMMQLRQLDMKRITEEERRMASVLAKKEEEKKRESHKQSLLKEKKRLTINNVARQWDLQQQRVANIATNEDRKDSDSPQDPCQIDGSTLSAFPEETGPLDSGLNNALQGLSVIDTYLVEVDGDTLSLYGSGALESLDRNWSVQTAGMITTVSFTFIEFDEIVQVLPKLKIKFPNSLHLKFKETNLVMLQQFNALAQLRRIDQLTIDPQGNPVVNFTLWKYYVLFRLSHFSMQKINGTEVTQNDMIMAERLFGILAHVASSELPQYRLISILGDARKKQFRYLLESKGKKPGIINEENNDSKRLVGENTNRATLNYTTRDFYNEKLEEIKEKKKFCKTYIEDLVKEATEINMKNEALQKLWPQMFIELVRDAVIEIRNKNSYMKLCLQQITDQK

Test system: carbonylated plasma proteins
Assay: iTRAQ and MALDI/TOF/TOF quantitative comparison of avidin-selected carbonylated proteins, breast cancer patients vs controls (Table 8)
Parameters: species or system Homo sapiens
Conditions: avidin-selected carbonylated protein in plasma, breast cancer patient vs matched control, iTRAQ; repeated lines of a protein = different donors; negative = lower in cancer

Molecule | Breast cancer/control (fold change)
B1 | −3.0
B2 | −9.2
B3 | 1.6
B4 | −1.6
B5 | 9.0
B6 | −2.2
